According to PubChem BioAssay AID2685 (National Center for Advancing Translational Sciences (NCATS), 2010):
In all, about 320,000 compounds went through this assay and about 2,100 (0.66%) were called active. The shares of active, inactive and inconclusive entries below differ from those in the screen. Calls follow the shape of the dose curve; as a rule, active = well fitted inhibition curve with a large enough effect in the signal ratio, with a control signal flat (not every such curve was filed as active); inconclusive = small, poorly fitted or top-dose-only effect, or effect the other way, or a change in a side signal; inactive = flat fitted curve, though single readings scatter; the % refers to the signal ratio. Potencies of inconclusive entries are doubtful fits and often do not repeat.

Test: qHTS Assay for Lipid Storage Modulators in Drosophila S3 Cells
Details: BODIPY lipid droplet fluorescence, 18-24 h, cells fed with added oleic acid; lipid storage change, negative = inhibition: at 46.1 µM (top of the series) unless noted
Text: NIH Molecular Libraries Probe Production Centers Network [MLPCN] NIH Chemical Genomics Center [NCGC] MLPCN Grant: 1 R03 MH085686-01 Assay Submitter (PI): Beller, Mathias; Max-Planck-Institut fur Biophysikalische Chemie NCGC Assay Overview: Storing lipids as a reservoir for energy or the anabolism of elementary metabolites is a common feature of probably all cells and is conserved from bacteria to humans. The universal cellular lipid storage organelle is the so-called lipid storage droplet (LD). Although ubiquitous, LDs share a simple structure composed of a hydrophobic core that harbors the storage lipids, which is shielded by a droplet-specific phospholipid monolayer to which proteins are attached. The current model of LD biogenesis involves an incorporation of the lipid core into the membrane leaflets of the endoplasmic reticulum (ER) followed by a subsequent budding-like maturation of a LD, which ultimately pinches off. Once released, LD volume can increase by localized lipogenesis or fusion of existing droplet. Storage lipids are re-mobilized enzymatically by lipase activity. Lipase regulation in the adipocyte is heavily studied and involves multiple components including catecholamine signaling, the LD-associated proteins Perilipin and comparative gene identification (CGI-58) and at least two lipases named hormone sensitive lipase (HSL) and adipocyte triglyceride lipase (ATGL). LD regulation outside of the adipocyte is poorly understood and only few components are known. However, there is an urgent need to learn more about ectopic fat depots as mislocalized storage of lipids, for example in the liver or muscle, is an eminent health problem associated with insulin resistance or the metabolic syndrome. We developed a laser-scanning cytometer assay to enable 1,536-well screening and combined the results of the small molecules screen with an RNAi database based on lipid storage.
Triacsin C (Sigma-Aldrich T-4540), an inhibitor of long-chain fatty acyl CoA synthetase that blocks synthesis of triglycerides, was used as a positive control for lipid under-storage. A total of 23 nL of compound solution of different concentrations were transferred to the assay plates using a Kalypsys pin tool equipped with a 1,536-pin array containing 10-nL slotted pins (FP1S10, 0.457-mm diameter, 50.8 mm long; V&P Scientific). One microliter of oleic acid (400 uM) was added, and the plate was lidded with stainless steel rubber gasket lined lids containing pinholes. […] Fluorescence was detected by excitation of the fluorophores with a 488-nm laser on an Acumen Explorer (TTP Lab Tech). The total intensity in channel 2 (500-530 nm) reflected lipid droplet accumulation. Cells were detected using channel 3 (575-640 nm) with 5-um width and 100-um depth filters. The ratio of the number of objects in PMT channel 2 over the number of objects in PMT channel 3 was also calculated. Percent activity was computed relative to an internal control (100% inhibited lipid droplet deposition due to the presence of 20 uM Triacsin C), which was added to 32 wells/plate.
% is scaled to controls: 0 for no effect and ±100 for the full control effect; potency is read from the fitted curve at half-maximal effect.

For `COc1ccc(S(=O)(=O)N(CC(=O)NCC2CCCO2)c2ccc(Cl)cc2)cc1` (stereo not given), which lipid storage change, negative = inhibition is on record?
Its lipid storage change, negative = inhibition is inconclusive: -11.8%.

Which lipid storage change, negative = inhibition does the source give for `COc1ccc(S(=O)(=O)N(C)C)cc1NC(=O)CN1C(=O)NC2(CCCC2)C1=O` here?
The lipid storage change, negative = inhibition was inconclusive: -58.7%.

With `CCc1ccccc1NC(=S)N1CCN(c2ccccc2F)CC1` as the compound, how does the Potency read?
Its Potency is inconclusive: 2.59 µM [activator, partial curve].

Which lipid storage change, negative = inhibition does the source give for `CCOC(=O)CSc1nc(N2CCOCC2)c2c(c1C#N)CC(C)(C)N(C)C2` here?
The lipid storage change, negative = inhibition was inconclusive: 9.27%.

For `Cc1cc(C)n2nc(C(=O)N/N=C/c3ccco3)nc2n1`, which Potency is on record?
The Potency was inconclusive: 0.116 µM [falling, full curve, poor fit].

Which lipid storage change, negative = inhibition does the source give for `CC1C/C(=N\NC(=O)c2ccc([N+](=O)[O-])cc2)CC(C)(C)C1` (stereo not given) here?
Its lipid storage change, negative = inhibition is inconclusive: -3.11%.

With `Cc1cccc(NC(=O)c2sc3ncn(CC(=O)N4CCN(c5ccccn5)CC4)c(=O)c3c2C)c1` as the compound, how does the lipid storage change, negative = inhibition read?
Its lipid storage change, negative = inhibition is inconclusive: -100%.

With `O=C(CN1CCN(CC(=O)Nc2ccccc2Cl)CC1)NCC1(N2CCCCC2)CCCCC1` as the compound, how does the lipid storage change, negative = inhibition read?
The lipid storage change, negative = inhibition was inconclusive: 6.39%.

For `Cc1c(OCC(=O)NCCCN2CCOCC2)ccc2c1oc(=O)c1ccccc12`, which lipid storage change, negative = inhibition is on record?
Its lipid storage change, negative = inhibition is inconclusive: -52.6%.

For `COc1cc(C2c3c(c(C)c(C)oc3=O)Oc3c(C)c(C)oc(=O)c32)ccc1OS(=O)(=O)c1ccc(C)cc1`, which lipid storage change, negative = inhibition is on record?
The lipid storage change, negative = inhibition was inconclusive: -33.9%.

Which Potency does the source give for `O=C(NCCOc1ccccc1F)C1CC(=O)N(c2ccc3c(c2)OCCO3)C1` (stereo not given) here?
The Potency was inconclusive: 13 µM [activator, partial curve].

With `NC(=O)c1cc2nc(-c3ccco3)cc(C(F)(F)F)n2n1` as the compound, how does the lipid storage change, negative = inhibition read?
Its lipid storage change, negative = inhibition is inconclusive: 2.44%.

For `O=C(CCc1ccccc1)Nc1ccccc1C(=O)N1CCOCC1`, which lipid storage change, negative = inhibition is on record?
Its lipid storage change, negative = inhibition is inconclusive: -18.8%.

With `COc1ccc(NC(=O)CCNS(=O)(=O)c2cc(Br)cnc2N)c(OC)c1` as the compound, how does the lipid storage change, negative = inhibition read?
Its lipid storage change, negative = inhibition is “inactive”.

For `Cc1c(Cl)cccc1NC(=O)N1CCCC1`, which lipid storage change, negative = inhibition is on record?
The lipid storage change, negative = inhibition was inconclusive: 13.4%.

With `O=C(NCc1ccccn1)c1ccc(=O)oc1` as the compound, how does the lipid storage change, negative = inhibition read?
Its lipid storage change, negative = inhibition is inconclusive: -4.91%.

For `Cc1ccc(CNC(=O)COC(=O)c2ccc(S(=O)(=O)N3CCCC3)cc2)cc1`, which Potency is on record?
The Potency was inconclusive: 0.0731 µM [falling, full curve, poor fit].

Which Potency does the source give for `COc1cccc(OC)c1C(=O)Nn1c(-c2cccs2)nc2ccccc2c1=O` here?
The Potency was inconclusive: 0.058 µM [falling, full curve].

For `Cc1ccc(CNC(=O)N2CCN(C)CC2)cc1`, which lipid storage change, negative = inhibition is on record?
The lipid storage change, negative = inhibition was inconclusive: 2.18%.

Which lipid storage change, negative = inhibition does the source give for `CNS(=O)(=O)c1cccc(C(=O)NCC(c2ccco2)N(C)C)c1` (stereo not given) here?
Its lipid storage change, negative = inhibition is inconclusive: -43.2%.

With `CCOC(=O)C(Cc1ccccc1)(NC(C)=O)C(=O)OCC` as the compound, how does the lipid storage change, negative = inhibition read?
The lipid storage change, negative = inhibition was inconclusive: -20.9%.

With `Cc1c(C)n(C)c2ccc(C(=O)NCCN3CCOCC3)cc12` as the compound, how does the Potency read?
Its Potency is inconclusive: 29.1 µM [activator, partial curve, poor fit].

Which Potency does the source give for `O=C(c1ccccc1)C1CN(c2ccccc2)CC1c1ccc(Cl)cc1` (stereo not given) here?
The Potency was inconclusive: 6.51 µM [falling, single point].

With `COc1ccccc1OC(C)C(=O)Nc1ccc2c(c1)OCCO2` (stereo not given) as the compound, how does the lipid storage change, negative = inhibition read?
The lipid storage change, negative = inhibition was inconclusive: 6.11%.

With `O=C(NNc1ccccc1[N+](=O)[O-])Nc1ccc(F)cc1F` as the compound, how does the lipid storage change, negative = inhibition read?
Its lipid storage change, negative = inhibition is inconclusive: 39.1%.

Which lipid storage change, negative = inhibition does the source give for `CCOc1ccc(NC(=O)CN(C)C(=O)CSCc2cccc(C)c2)cc1OCC` here?
Its lipid storage change, negative = inhibition is “inconclusive”.

Which Potency does the source give for `CC1CCCN(C(=O)Cn2nnc(-c3ccc(N(C)C)cc3)n2)C1` (stereo not given) here?
Its Potency is inconclusive: 20.6 µM [falling, single point].

For `Cc1ccc(OCCOCCn2ccnc2)c(Br)c1`, which lipid storage change, negative = inhibition is on record?
Its lipid storage change, negative = inhibition is “inactive”.

Which lipid storage change, negative = inhibition does the source give for `CCN1CCN(c2ccc(S(=O)(=O)N3CCCCC3)cc2N)CC1` here?
The lipid storage change, negative = inhibition was inconclusive: -21.2%.

Which Potency does the source give for `CC(=O)N/C(=C/c1ccc(OC(F)F)cc1)C(=O)O` here?
Its Potency is inconclusive: 29.1 µM [falling, partial curve, poor fit].

For `O=C1c2ccccc2C(=O)N1Nc1ccccc1`, which lipid storage change, negative = inhibition is on record?
The lipid storage change, negative = inhibition was inconclusive: -14.2%.

With `COc1ccc(-c2ccc(-c3nnc(-c4cc(OC)ccc4OC)o3)cc2)cc1` as the compound, how does the lipid storage change, negative = inhibition read?
The lipid storage change, negative = inhibition was inconclusive: 1.28%.

With `CCOc1ccc2nc(NC(=O)CSC3=NCCS3)sc2c1` as the compound, how does the lipid storage change, negative = inhibition read?
Its lipid storage change, negative = inhibition is inconclusive: -16.4%.

With `COC(=O)Cn1cnc2sc3c(c2c1=O)CCCC3` as the compound, how does the lipid storage change, negative = inhibition read?
The lipid storage change, negative = inhibition was inconclusive: -53.3%.

With `CC(C)c1ccc(/C=N/NC(=O)c2nnn(-c3nonc3N)c2CN2CCOCC2)cc1` as the compound, how does the lipid storage change, negative = inhibition read?
The lipid storage change, negative = inhibition was inconclusive: -37.1%.

Which lipid storage change, negative = inhibition does the source give for `COc1ccc(NC(=O)COC(=O)C2CC3C=CC2C3)cc1` (stereo not given) here?
The lipid storage change, negative = inhibition was inconclusive: -33.4% [at 0.00295 µM].

With `Cc1ccc(C(=O)Nc2ccccc2N2CCCCC2)o1` as the compound, how does the lipid storage change, negative = inhibition read?
Its lipid storage change, negative = inhibition is inconclusive: -48.1%.

For `CC(C)(C)n1nnnc1C(c1ccncc1)N1CCN(c2ccc(O)cc2)CC1` (stereo not given), which lipid storage change, negative = inhibition is on record?
Its lipid storage change, negative = inhibition is inconclusive: 34%.

Which Potency does the source give for `Cc1csc(C(=O)O)c1NC(=O)c1ccc(F)cc1` here?
Its Potency is inconclusive: 7.31 µM [activator, partial curve].

Which lipid storage change, negative = inhibition does the source give for `CC1CC(C)CN(S(=O)(=O)c2ccc(NC(=O)CN3CCCCCC3)cc2)C1` (stereo not given) here?
Its lipid storage change, negative = inhibition is inconclusive: 30.9%.

For `O=C(O)CC(C(=O)Nc1ccc(Cl)cc1)N1CCCCCC1` (stereo not given), which lipid storage change, negative = inhibition is on record?
The lipid storage change, negative = inhibition was inconclusive: 10.3%.

For `Clc1ccc(-c2n[nH]c3c2CCCC3)cc1`, which lipid storage change, negative = inhibition is on record?
Its lipid storage change, negative = inhibition is inconclusive: -2.25%.

Which lipid storage change, negative = inhibition does the source give for `O=C(O)C1Cc2c([nH]c3ccccc23)C(c2ccc3c(c2)OCO3)N1` (stereo not given) here?
The lipid storage change, negative = inhibition was inconclusive: 17.9%.

Which lipid storage change, negative = inhibition does the source give for `COc1ccc(C(=O)Nc2ccc3nc(N4CCCCC4)cc(C)c3c2)c(OC)c1` here?
Its lipid storage change, negative = inhibition is inconclusive: 4.62%.

Which Potency does the source give for `CCCCn1c(N)c(N(CCOC)C(=O)c2ccc(OCc3c(C)noc3C)cc2)c(=O)[nH]c1=O` here?
The Potency was inconclusive: 0.0046 µM [falling, full curve, poor fit].

For `Cn1nnc(NC(=S)NC(=O)c2cccs2)n1`, which Potency is on record?
The Potency was inconclusive: 1.84 µM [falling, partial curve].

Which Potency does the source give for `COc1ccc(Cl)cc1S(=O)(=O)NCc1nc2nc(C)cc(C)n2n1` here?
The Potency was inconclusive: 2.31 µM [falling, full curve].

For `Cc1cc(NC(=O)C2CCCCC2C(=O)O)ccc1NC(=O)c1ccccc1` (stereo not given), which Potency is on record?
The Potency was inconclusive: 29.1 µM [activator, single point].

With `CCN=C1S/C(=C\c2ccc(OCC)c(OC)c2)C(=O)N1CC` as the compound, how does the lipid storage change, negative = inhibition read?
The lipid storage change, negative = inhibition was inconclusive: -19.5%.

With `O=C(NCc1n[nH]c(=S)n1Cc1ccccc1)c1ccc(Cl)cc1Cl` as the compound, how does the lipid storage change, negative = inhibition read?
Its lipid storage change, negative = inhibition is inconclusive: 8.38%.
